# Experiment: general procedure: Fmoc solid-phase peptide synthesis; Rink MBHA resin
# Conditions: whole synthesis, scale of the general procedure 0.5 mmol, acetate, one disulfide bridge, sequence written open
substance,measurement,setting,value
Mpr-Harg-Gly-Asp-Trp-Pro-Cys-NH2 (X—Y-Trp-Pro-Cys),final purity (method not given),,99.8%
same,isolated yield,total yield,61.3%

# — patent US9394341 (dated 2016)
